“And” between values parts separate entries of the source, which are not always exact repeats. Equal values may be shown once. The campaign covered roughly 310,000 compounds. About 17,000 (5.5%) were called active. This list was built around the results that the source calls inconclusive (neither active nor inactive); the mix of calls is not that of the screen. Calls come from the whole dose curve; as a rule, active = well fitted inhibition curve with a large enough effect; inconclusive = small, poorly fitted or top-dose-only effect, or effect the other way; inactive = no such curve, though single readings can be large or run the other way. Potencies beside an inconclusive call are fits to weak or partial responses and may not hold up.
Molecular target: Nuclear receptor ROR-gamma (Mus musculus) (UniProt P51450)
Experiment: qHTS for inhibitors of ROR gamma transcriptional activity; note: nearly all actives have a fitted effect of over 60% in size
Details: Drosophila S2 Gal4-RORgamma UAS-luciferase reporter, 20 h; series mostly up to 53.6 µM
Summary of the method: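 Compounds are pin-transferred onto Drosophila Schneider cells expressing a copper-inducible Gal4–ROR gamma transactivation domain fusion. After 1 hr, copper sulfate is added to 700 uM final; luciferase is read 20 hr later.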
Potency is the fitted concentration of half-maximal effect.

The chains behind the UniProt entries cited, without tags or fusion partners. Where a name states a change or a piece, a line headed by the entry shows the natural chain unless it says otherwise.
UniProt P51450: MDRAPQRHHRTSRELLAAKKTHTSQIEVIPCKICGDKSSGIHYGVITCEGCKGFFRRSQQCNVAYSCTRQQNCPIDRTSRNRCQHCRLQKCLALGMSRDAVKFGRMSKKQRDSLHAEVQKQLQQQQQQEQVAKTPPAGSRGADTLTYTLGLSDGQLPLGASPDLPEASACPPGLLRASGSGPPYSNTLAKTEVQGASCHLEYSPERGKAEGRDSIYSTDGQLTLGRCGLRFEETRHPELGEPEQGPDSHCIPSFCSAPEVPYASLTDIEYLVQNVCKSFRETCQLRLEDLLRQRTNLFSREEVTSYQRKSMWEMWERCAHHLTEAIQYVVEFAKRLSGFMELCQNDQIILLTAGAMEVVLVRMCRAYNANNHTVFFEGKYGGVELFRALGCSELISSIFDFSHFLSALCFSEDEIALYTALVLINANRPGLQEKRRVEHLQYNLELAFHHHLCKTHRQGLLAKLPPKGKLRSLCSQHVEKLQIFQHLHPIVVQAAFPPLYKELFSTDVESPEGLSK

| SMILES | Potency |
| --- | --- |
| CC(=O)C1=C(C)Nc2ncnn2C1c1ccc(F)cc1 (centres undefined) | inconclusive: 14.1 µM [inhibitor, single point] |
| CCC(c1nnnn1C1CCCC1)N1CCN(Cc2ccccc2)CC1 (centres undefined) | inconclusive: 7.08 µM [inhibitor, partial curve, poor fit] |
| CCCn1nnc(NC(=S)NC(=O)CC)n1 | active: 7.08 µM |
| OC(COCCOc1ccc(Br)cc1)CN1CCCCC1 (centres undefined) | inactive |
| CCN(CC)S(=O)(=O)c1cccc(C(=O)Nc2cccc(C)c2)c1 | inconclusive: 0.562 µM [inhibitor, single point] |
| O=c1c2c([nH]c3ccccc13)CCCC2 | inconclusive: 31.6 µM [inhibitor, single point] |
| C=CCn1c(SCC(=O)Nc2ccc(-c3nc4ccc(C)cc4s3)cc2)nnc1-c1ccccc1 | active: 14.1 µM |
| O=S(=O)(NCCC(c1ccc(F)cc1)c1ccco1)c1ccccc1 (centres undefined) | inactive |
| COCCN(C(=O)c1ccco1)c1nnc(-c2ccc(OC)cc2)s1 | inconclusive: 4.47 µM [activator, full curve] |
| COc1cccc(NC2=C(Cl)C(=O)OC2OC(=O)c2ccco2)c1 (centres undefined) | inconclusive: 28.2 µM [inhibitor, single point] |
| COc1ccc(-c2c(-c3ccc(OCC(=O)NN)cc3O)n[nH]c2C)cc1OC | inactive |
| CCOc1cc(/C=N/N=C(/N)c2nonc2N)cc(Br)c1OCc1ccc(Cl)cc1 | inconclusive: 11.2 µM [inhibitor, single point] |
| CCOC(=O)c1ccc(NC(=O)CN2CCN(CCN=CC3=C(O)CC(C)(C)CC3=O)CC2)cc1 | inactive |
| N/C(=N\OC(=O)COc1ccc2ccccc2c1)c1ccccn1 | inconclusive: 35.5 µM [inhibitor, single point] |
| CCC(CC)C(=O)N1CC(=O)Nc2ccc(F)cc2C1c1ccc(F)cc1 (centres undefined) | inactive |
| CCc1ccc(NC(=O)CSc2nnc(CNC(=O)c3cccs3)o2)cc1 | inactive |
| C=CCNc1nc2c(c(=O)n(C)c(=O)n2C)n1Cc1ccc(F)cc1 | inconclusive: 5.01 µM [activator, single point] |
| CC(=O)c1c(C)[nH]c(C(=O)Nc2ccc3c(c2)OCCO3)c1C | inconclusive: 5.62 µM [inhibitor, single point] |
| Cc1ccc(C2=NS(=O)(=O)N(C)C(C(=O)Nc3ccc4c(c3)OCO4)=C2)cc1 | inconclusive: 25.1 µM [activator, single point] |
| Cc1ccc(NC(=S)N(Cc2ccco2)C(C)c2cccs2)cc1 (centres undefined) | inconclusive: 3.16 µM [inhibitor, single point] |
| O=C(CCCCCNc1nc(=S)[nH]c2ccccc12)NCCc1ccccc1 | inconclusive: 14.1 µM [inhibitor, single point] |
| Clc1ccc(-c2nc3ccccn3c2CN2CCCCC2)cc1 | active: 17.8 µM |
| CC(C)CCCC(C)NS(=O)(=O)Cc1ccccc1 (centres undefined) | inconclusive: 11.2 µM [inhibitor, single point] |
| Clc1ccc2nc(CSc3nnc4ccccn34)cn2c1 | inconclusive: 15.8 µM [inhibitor, single point] |
| O=C1c2ccccc2C(=O)N1CCCc1c[nH]c2ccccc12 | inconclusive: 11.2 µM [activator, single point] |

| SMILES | Potency |
| --- | --- |
| CN1CCN(c2ccc(NC(=O)c3ccc([N+](=O)[O-])o3)cc2Cl)CC1 | inconclusive: 15.8 µM [inhibitor, single point] |
| CCOC(=O)c1ccc(CSc2nnc(N)s2)cc1 | inconclusive: 10 µM [activator, partial curve] |
| CN(C(=O)COc1ccccc1C(=O)NCCc1ccccc1)c1ccccc1 | inconclusive: 5.01 µM [activator, full curve, poor fit] |
| CC(/C=N/NC(=O)CSc1nc(C)cc(C)n1)=C\c1ccccc1 | inconclusive: 3.98 µM [activator, partial curve] |
| CC1=NOC(=O)/C1=C/c1ccc(-c2ccc(Cl)cc2)o1 | inconclusive: 35.5 µM [inhibitor, single point] |
| COc1ccc(-c2csc(Nc3ncccc3C)n2)cc1OC | active: 3.55 µM |
| Cc1c(C(=O)N/N=C/c2ccc(O)c(Br)c2)sc(N)c1C#N | inconclusive: 17.8 µM [activator, single point] |
| Cc1ccnc(NCc2cccc3ccccc23)c1 | active: 15.8 µM |
| CC1CN(C(=O)/C=C/c2ccc([N+](=O)[O-])s2)CC(C)O1 (centres undefined) | inconclusive: 20 µM [inhibitor, partial curve, poor fit] |
| CC1CC(C)CN(S(=O)(=O)c2ccc(C(=O)N3CCCC3)cc2)C1 (centres undefined) | inactive |
| Cc1ccc(C#N)c(SCc2nnc(-c3ccc(Cl)cc3)o2)n1 | active: 3.55 µM |
| CC(=O)c1cccc(NC(=O)Cc2coc3cc4c(cc23)CCC4)c1 | inconclusive: 31.6 µM [activator, single point] |
| NC(=O)c1cc(NC(=O)CCCc2nc3ccccc3s2)cc(C(N)=O)c1 | inactive |
| COc1ccc(NC(=S)NNC(=O)c2ccccc2OC(F)F)cc1 | active: 12.6 µM |
| O=C(COC(=O)c1ccco1)NCc1ccccc1Cl | inconclusive: 11.2 µM [activator, partial curve] |
| COc1ccccc1OCc1ccc(C(=O)Nc2ccncc2)o1 | inconclusive: 20 µM [activator, single point] |
| Cc1cc(C(=O)Nc2sc3c(c2C#N)CCC3)no1 | inconclusive: 35.5 µM [inhibitor, single point] |
| Cc1ccc(N2CCN(C(=O)NC3CCCCC3)CC2)c(C)c1 | inconclusive: 10 µM [activator, single point] |
| c1cc(-c2nnc3n2CCC3)[nH]n1 | inconclusive: 5.62 µM [inhibitor, full curve, poor fit] |
| COc1ccc(N2C3=[N+](CCCC3)CC2(C)O)cc1 (centres undefined) | inactive |
| COc1ccc2nc3c(c(-c4ccccc4)c2c1)CCC3 | active: 3.98 µM and active: 11.2 µM |
| Cc1cc(C)cc(NC(=O)NN2C(C)CCCC2C)c1 (centres undefined) | inactive |
| CCCCN1CNC(=S)N(c2ccccc2OCC)C1 | active: 11.2 µM |
| O=C(NC(=S)Nc1cccc2cccnc12)c1cccs1 | inactive |
| CCCSc1nnc(NC(=O)Nc2ccccc2OC)s1 | inactive |

Three records drawn at random from those above:

| SMILES | Potency |
| --- | --- |
| COc1ccccc1OCc1ccc(C(=O)Nc2ccncc2)o1 | inconclusive: 20 µM [activator, single point] |
| Cc1cc(C(=O)Nc2sc3c(c2C#N)CCC3)no1 | inconclusive: 35.5 µM [inhibitor, single point] |
| Cc1cc(C)cc(NC(=O)NN2C(C)CCCC2C)c1 (centres undefined) | inactive |

Later entries:

| SMILES | Potency |
| --- | --- |
| CCC1(c2ccc(Cl)cc2)NC(=O)N(CC(=O)NCc2ccc(F)cc2)C1=O (centres undefined) | inconclusive: 2.82 µM [activator, partial curve] |
| Cc1ccc(-n2c(-c3cnccn3)n[nH]c2=S)cc1 | inconclusive: 35.5 µM [inhibitor, single point] |
| Cn1cccc1Cc1nnc(SCC(=O)Nc2ccc3c(c2)OCCO3)n1-c1ccc(F)cc1 | inconclusive: 22.4 µM [activator, single point] |
| CCOc1ccccc1N1CCN(Cc2cccc(OC)c2O)CC1 | inactive |
| COc1ccc(C(=O)NC(=S)Nc2ccccc2N2CCOCC2)cc1Br | active: 6.31 µM |
| CCn1cc(C(=O)NCc2ccc3c(c2)OCO3)c(=O)c2cc(F)c(N3CCN(C)CC3)cc21 | inactive |
| CNS(=O)(=O)c1ccc(NC(=S)Nc2ccc3c(c2)OCO3)cc1 | inconclusive: 2 µM [inhibitor, partial curve, poor fit] |
| Clc1ccc(-c2nc(C3CCCCC3)no2)cc1 | inconclusive: 7.08 µM [activator, partial curve, poor fit] |
| CN(C)C(CNC(=O)c1ccc(C(F)(F)F)cc1)c1ccco1 (centres undefined) | inactive |
| O=C(COc1ccc(Cl)cc1Cl)NC(=O)N1CCCCC1 | inconclusive: 0.0045 µM [activator, full curve, poor fit] |
| COCCCN1C(=O)C(=O)/C(=C(/O)c2ccc(OC)cc2)C1c1cccc(OC)c1 (centres undefined) | inactive |
| Cc1nn(Cc2ccc(Cl)cc2Cl)c(C)c1NC(=O)CCl | inconclusive: 35.5 µM [inhibitor, single point] |
| COc1cc(NC(=O)COc2cc(O)c3c(c2)OC(C)(C)CC3=O)cc(OC)c1 | inconclusive: 35.5 µM [activator, single point] |
| Cc1ccc(C)c(S(=O)(=O)N2CCN(CC(=O)NC(=O)NCc3ccccc3)CC2)c1 | inconclusive: 12.6 µM [activator, single point] |
| Cc1cc(CNC(=O)C2CCC(=O)N(CCc3cccc(F)c3)C2)on1 (centres undefined) | inactive |
| Cc1csc(NC(=O)c2ccc(Br)s2)n1 | active: 10 µM |
| CCc1ccc(NC(=S)N(CCCN2CCOCC2)Cc2ccco2)cc1 | inconclusive: 2.82 µM [inhibitor, partial curve, poor fit] |
| COc1ccc(-n2c(=O)c3c4c(sc3n3c(=S)[nH]nc23)CCCC4)cc1 | active: 7.94 µM |
| CCOc1ccc(-c2nc(N)nc(C)c2-c2ccc(OC)c(OC)c2)c(O)c1 | inconclusive: 0.141 µM [inhibitor, partial curve, poor fit] |
| COc1cc(C)nc(N(Cc2ccccc2)S(=O)(=O)c2ccc(C)cc2)n1 | inconclusive: 17.8 µM [activator, single point] |
| Cc1cccc(NC(=S)NCC(C)CSc2ccc(Cl)cc2)c1 (centres undefined) | active: 3.16 µM |
| CCCCNC(=O)C1CCCN(S(=O)(=O)c2c(C)noc2/C=C/c2cccs2)C1 (centres undefined) | inconclusive: 14.1 µM [activator, single point] |
| CN(Cc1ccccc1)C(=O)c1nc2ccccn2c1CN1CCCC1c1nccs1 (centres undefined) | inconclusive: 6.31 µM [activator, single point] |
| CN(C)S(=O)(=O)c1ccc(NCC2COc3ccccc3O2)c([N+](=O)[O-])c1 (centres undefined) | inconclusive: 4.47 µM [activator, partial curve] |

Reference: PubChem BioAssay AID2551 (National Center for Advancing Translational Sciences (NCATS), 2010)
